Measurements reported in PubChem BioAssay AID1259282 (Sanger Institute, 2017)
Shown is an unselected part of 794 deposited reagents. Over the whole deposit, 11 (1.4%) got an active call. 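Calls flag knock-downs that lower viability without drug; drug synergy appears only in the synergy scores; exposure time not stated.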 Viability is capped at 1. Not all columns of the deposit are shown. Not stated in the record: the amount of reagent, the time to read-out.

- Aim: 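Kinase knock-downs that work with targeted colorectal cancer drugs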 (primary screen)
- Cells: DIFI human colorectal cancer cell line
- Reagent: siRNA pool against human genes
- Conditions: anchor drug at a mild dose (BYL719 1 µM, cetuximab 5 µg/ml, trametinib 10 nM) or DMSO vehicle; exposure time not given
- Measurement: 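Robust z-score and replicate-mean viability versus non-targeting pool without drug, plus a synergy score for each low-dose anchor drug (BYL719, cetuximab, trametinib)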
- Scale: robust z-score, knock-down alone: higher = more viable cells than typical knock-down; viability, knock-down alone: higher = more viable cells; synergy score with trametinib and synergy score with cetuximab: higher = stronger combined killing with drug
- Call rule: 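Essential when the robust z-score of the knock-down without drug falls below -3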
- Meaning of the calls: active = essential (knock-down alone, z below -3); inactive = not essential

gene,"robust z-score, knock-down alone","viability, knock-down alone (fraction of control)",synergy score with trametinib,synergy score with cetuximab,outcome
MELK (maternal embryonic leucine zipper kinase),0.715,1,-0.0568,-0.0931,inactive
LMTK1 (lemur tail kinase 1),-2.55,0.525,0.114,0.0657,inactive
RBM10 (RNA binding motif protein 10),-2.02,0.602,0.0441,0.028,inactive
HASPIN (histone H3 associated protein kinase),0.418,0.957,0.168,0.0597,inactive
MAP4K3 (mitogen-activated protein kinase kinase kinase kinase 3),0.715,1,-0.0239,0.0696,inactive
LMTK3 (lemur tail kinase 3),-2.45,0.54,-0.00506,-0.0434,inactive
GAK (cyclin G associated kinase),0.715,1,0.0917,-0.0194,inactive
ADCK1 (aarF domain containing kinase 1),0.568,0.979,0.0638,0.0263,inactive
DGKD (diacylglycerol kinase delta),0.0216,0.899,-0.0252,0.0861,inactive
NF1 (neurofibromin 1),0.715,1,-0.0369,-0.0532,inactive
AXL (AXL receptor tyrosine kinase),0.715,1,0.0747,-0.0393,inactive
CIT (citron rho-interacting serine/threonine kinase),-3.86,0.336,0.0478,0.0157,active
CHUK,0.715,1,-0.143,-0.234,inactive
BRD3 (bromodomain containing 3),0.715,1,0.166,0.0522,inactive
NIM1K (NIM1 serine/threonine protein kinase),0.633,0.988,0.0803,-0.017,inactive
PDGFRB (platelet derived growth factor receptor beta),-2.17,0.581,-0.0632,-0.0457,inactive
MAPK13 (mitogen-activated protein kinase 13),0.715,1,0.0148,0.0918,inactive
MAPK10 (mitogen-activated protein kinase 10),-0.257,0.859,0.132,0.0345,inactive
PRKD2 (protein kinase D2),0.715,1,0.136,-0.135,inactive
RPS6KA3 (ribosomal protein S6 kinase A3),0.715,1,0.0184,-0.151,inactive

6 neighbouring reagents from above, quoted:
gene,"robust z-score, knock-down alone","viability, knock-down alone (fraction of control)",synergy score with trametinib,synergy score with cetuximab,outcome
ADCK1 (aarF domain containing kinase 1),0.568,0.979,0.0638,0.0263,inactive
DGKD (diacylglycerol kinase delta),0.0216,0.899,-0.0252,0.0861,inactive
NF1 (neurofibromin 1),0.715,1,-0.0369,-0.0532,inactive
AXL (AXL receptor tyrosine kinase),0.715,1,0.0747,-0.0393,inactive
CIT (citron rho-interacting serine/threonine kinase),-3.86,0.336,0.0478,0.0157,active
CHUK,0.715,1,-0.143,-0.234,inactive

The list goes on:
gene,"robust z-score, knock-down alone","viability, knock-down alone (fraction of control)",synergy score with trametinib,synergy score with cetuximab,outcome
ELP1 (elongator acetyltransferase complex subunit 1),0.434,0.959,-0.0522,-0.0829,inactive
NEK1 (NIMA related kinase 1),0.715,1,0.161,0.0781,inactive
ALPK3 (alpha kinase 3),0.715,1,0.207,0.128,inactive
MAGI1,-0.148,0.875,0.182,0.118,inactive
TLK1 (tousled like kinase 1),-1.17,0.726,0.0963,0.0982,inactive
CALM1 (calmodulin 1),0.292,0.939,0.252,0.0927,inactive
SKAP1 (src kinase associated phosphoprotein 1),0.715,1,0.0237,-0.0777,inactive
"PKMYT1 (protein kinase, membrane associated tyrosine/threonine 1)",0.0485,0.903,0.12,0.11,inactive
TGFBR2 (transforming growth factor beta receptor 2),-1.68,0.652,0.089,0.0508,inactive
"CKM (creatine kinase, M-type)",0.715,1,-0.0617,-0.227,inactive
"PFKFB4 (6-phosphofructo-2-kinase/fructose-2,6-biphosphatase 4)",0.715,1,0.0969,0.0332,inactive
DLG2 (discs large MAGUK scaffold protein 2),0.715,1,-0.138,-0.134,inactive
ACVRL1 (activin A receptor like type 1),0.00759,0.897,-0.16,-0.0907,inactive
BRD4 (bromodomain containing 4),-1.21,0.72,-0.11,-0.0926,inactive
SOS2 (SOS Ras/Rho guanine nucleotide exchange factor 2),0.715,1,-0.217,-0.0687,inactive
EPHA6 (EPH receptor A6),-0.675,0.798,0.00979,-0.0946,inactive
PAK1 (p21 (RAC1) activated kinase 1),-0.684,0.797,0.0738,0.104,inactive
TAF1L (TATA-box binding protein associated factor 1 like),0.715,1,-0.0876,-0.0236,inactive
EGFR (epidermal growth factor receptor),-3.54,0.382,-0.0716,-0.175,active
PRKAA1 (protein kinase AMP-activated catalytic subunit alpha 1),0.715,1,-0.0456,-0.109,inactive
IPMK (inositol polyphosphate multikinase),0.715,1,-0.163,-0.0714,inactive
NRBP1 (nuclear receptor binding protein 1),0.715,1,0.0314,-0.122,inactive
PIK3C2A,-2.15,0.585,0.164,0.0782,inactive
STK39 (serine/threonine kinase 39),-2.41,0.547,-0.066,-0.0668,inactive
BMPR1A (bone morphogenetic protein receptor type 1A),0.715,1,-0.087,0.0692,inactive
MAST4,0.715,1,-0.249,-0.224,inactive
EIF2AK2 (eukaryotic translation initiation factor 2 alpha kinase 2),0.715,1,-0.0533,-0.0129,inactive
CDK3 (cyclin dependent kinase 3),0.715,1,0.102,0.0664,inactive
PAK6 (p21 (RAC1) activated kinase 6),-0.972,0.755,0.089,0.0303,inactive
N4BP2 (NEDD4 binding protein 2),0.715,1,-0.165,-0.208,inactive
